The values below come from US5616684A (priority 1991, dated 1997).

The nature of the data set: general procedure: solution-phase peptide synthesis; DCC/HONB (ONB active esters).

Non-standard residues stand in square brackets, D forms with d. *: point of attachment. OPac = O=C(CO*)c1ccccc1; Boc = CC(C)(C)OC(=O)*; OBn = c1ccc(CO*)cc1

With “Boc-Asn(CH2 CH2 Ph)-Asp(OBzl)-D-Leu-Leu-OPac”, the step yield (coupling step) amounted to 88.7%.

As for “Boc-Asn(CH2 Ph)-Asp(OBzl)-D-Leu-Leu-OPac”, the step yield (coupling step) stood at 86.7%.

Substance “Boc-Asn(NHCH2 CH2 Ind)-AsP(OBzl)-D-Thg(2)-Leu-OPac” came in with a step yield (coupling step) of 96.7%.

For the setting “coupling step”, “Boc-D-Asp(OBzl)-Asn(CH2 CH2 Ph)-Asp(OBzl)-D-Leu-Leu-OPac” returned a step yield of 93.5%.

With “Boc-D-Asp(OBzl)-Asn(NHCH2 CH2 Ind)-Asp(OBzl)-D-Thg(2)-Leu-OPac”, the step yield (coupling step) was 85.9%.

As to “Boc-D-Thg(2)-Leu-D-Trp-D-Asp(OBzl)-Asn(CH2 CH2 -Ind)-Asp(OBzl)-OH”, the step yield (late stage modification step) is on record as 98.0%.

In the case of “Boc-D-Thg(2)-Leu-D-Trp-D-Asp(OBzl)-Asn(CH2 CH2 -Ind)-Asp(OBzl)-OPac”, the step yield (coupling step) turned out to be 98.7%.

With “Boc-D-Trp-D-Asp(OBzl)-Ala-D-Asp(BOzl)-D-Leu-Leu-OH”, the step yield (late stage modification step) worked out at 93.5%.

With “Boc-D-Trp-D-Asp(OBzl)-Asn(CH2 CH2 -Ind)-Asp(OBzl)-OPac”, for the setting “coupling step”, the step yield amounted to 56.9%.

Where the note is “late stage modification step”, “Boc-D-Trp-D-Asp(OBzl)-Asn(CH2 CH2 Ph)-Asp(OBzl)-D-Leu-Leu-OH” yielded a step yield of 97.3%.

Regarding “Boc-D-Trp-D-Asp(OBzl)-Asn(CH2 CH2 Ph)-Asp(OBzl)-D-Leu-Leu-OPac”, the step yield (coupling step) is reported as 90.5%.

Turning to “Boc-D-Trp-D-Asp(OBzl)-Asn(CH2 Ph)-Asp(OBzl)-D-Leu-Leu-OH”, where the note is “late stage modification step”, the step yield amounted to 96.1%.

Substance “Boc-D-Trp-D-Asp(OBzl)-Asn(CH2 Ph)-Asp(OBzl)-D-Leu-Leu-OPac” showed a step yield (coupling step) of 81.6%.

For the substance “Boc-D-Trp-D-Asp(OBzl)-Asn(NHCH2 CH2 Ind)-Asp(OBzl)-D-Thg(2)-Leu-OH”, the step yield (late stage modification step) came to 98.0%.

As for “Boc-D-Trp-D-Asp(OBzl)-Asn(NHCH2 CH2 Ind)-Asp(OBzl)-D-Thg(2)-Leu-OPac”, where the note is “coupling step”, the step yield stood at 68.0%.

On to “Boc-Leu-D-Trp-D-Asp(OBzl)-Asn(CH2 CH2 -Ind)-Asp(OBzl)-OPac”, for which the step yield (coupling step) turned out to be 91.4%.

As for “Boc-Orn(COCH2 -Ind)-Asp(OBzl)-D-Leu-Leu-D-Trp-D-Asp(OBzl)-OH”, where the note is “late stage modification step”, the step yield is 97.6%.

In turn, “Boc-Orn(COCH2 -Ind)-Asp(OBzl)-D-Leu-Leu-D-Trp-D-Asp(OBzl)-OPac” showed a step yield (coupling step) of 87.4%.

For the substance “Boc-Orn(COCH2 CH2 Ph)-Asp(OBzl)-D-Leu-Leu-D-Trp-D-Asp(OBzl)-OH”, the step yield (late stage modification step) is 98.3%.

“Boc-Orn(COCH2 CH2 Ph)-Asp(OBzl)-D-Leu-Leu-D-Trp-D-Asp(OBzl)-OPac”: the step yield (coupling step) came to 91.0%.

Regarding “Boc-Orn(COCH2 Ph)-Asp(OBzl)-D-Leu-Leu-D-Trp-D-Asp(OBzl)-OH”, the step yield (late stage modification step) was found to be 97.2%.

For the substance “Boc-Orn(COCH2 Ph)-Asp(OBzl)-D-Leu-Leu-D-Trp-D-Asp(OBzl)-OPac”, under “coupling step”, the step yield was 78.4%.

Turning to Boc-[dW][dD](OBn)WD(OBn)-OPac, the step yield (coupling step) turned out to be 80.3%.

Under “cyclisation step”, “Cyclo[--D--Asp--Asn(CH2 CH2 --Ind)--Asp--D--Val--Leu--D--Trp--]” came in with a cyclisation yield of 82.6%.

“Cyclo[--D--Asp--Gln(CH2 CH2 Ph)--Asp--D--Thg(2)--Leu--D--Trp--]”: the step yield (late stage modification step) was found to be 92.5%.

In turn, “Cyclo[--D--Asp--Gln(CH2 Ph)--Asp--D--Thg(2)--Leu--D--Trp(For)--]” gave a step yield (coupling step) of 85.4%.

The substance “Cyclo[--D--Asp--Gln(CH2 Ph)--Asp--D--Thg(3)--Leu--D--Trp(For)--]” showed a step yield (coupling step) of 89.5%.

Turning to “Cyclo[--D--Asp--Gln(CH2 Ph)--Asp--D--Thg(3)--Leu--D--Trp(Me)--]”, the step yield (coupling step) came out at 78.1%.

Under “coupling step”, “Cyclo[--D--Cta--Gln(CH2 CH2 --Ind)--Asp--D--Thg(2)--Leu--D--Trp--]” showed a step yield of 91.4%.

For the substance “Cyclo[--D--Cta--Gln(CH2 CH2 Ph)--Asp--D--Thg(2)--Leu--D--Trp--]”, the step yield (coupling step) amounted to 92.0%.

As to “Cyclo[--D--Cta--Gln(CH2 CH2 Ph)--Asp--D--Thg(3)--Leu--D--Trp--]”, the step yield (coupling step) is recorded as 84.3%.
